Laboratory results: paper PMC12809450

Tested on: PhiKZ nvRNAP sigma-like subunit GP68 + PhiKZ nvRNAP beta-like subunit GP123 + PhiKZ nvRNAP beta-like subunit GP71-73 + PhiKZ nvRNAP beta'-like subunit GP55 + PhiKZ nvRNAP beta'-like subunit GP74
Experiment: cryo-EM structure (2.59 A)
Details: 5 mM MgCl2, equimolar DNA, no RNA, 20 mM Tris-HCl pH 8.0, 5 mM MgCl2, 2.5 mM TCEP, 0.1 mg/ml nvRNAP (diluted from 200 mM NaCl TGED), 20 min at 2 C, recombinant protein

**Q.** Does “ATGAGTAATTTTAGTGAATGTATTTGCTATATTGCTATGTAGACAGTTCCCAAAAGCCTAAAGTTACAATATAGG / CCTATATTGTAACTTTAGGCTTTTGGGAACTCCTCTCATATTCCCATAGCAAATACATTCACTAAAATTACTCAT [p119L double-bubble open promoter analogue (-38 to +37)]” bind?
**A.** binds

Construct, isoform or probe ends are uncertain for at least one entry.
